Assay results published in patent publication US20120065136A1.
No constants are given. Whether binding was seen depends on the method and setting. Some binding calls cover weakened binding; strength is not graded here.

Protein sequences, listed by entry. Tags and fused reporters are not part of them. Lines headed by an entry give the natural chain unless they say otherwise; changes in a name come on top.
UniProt P00451: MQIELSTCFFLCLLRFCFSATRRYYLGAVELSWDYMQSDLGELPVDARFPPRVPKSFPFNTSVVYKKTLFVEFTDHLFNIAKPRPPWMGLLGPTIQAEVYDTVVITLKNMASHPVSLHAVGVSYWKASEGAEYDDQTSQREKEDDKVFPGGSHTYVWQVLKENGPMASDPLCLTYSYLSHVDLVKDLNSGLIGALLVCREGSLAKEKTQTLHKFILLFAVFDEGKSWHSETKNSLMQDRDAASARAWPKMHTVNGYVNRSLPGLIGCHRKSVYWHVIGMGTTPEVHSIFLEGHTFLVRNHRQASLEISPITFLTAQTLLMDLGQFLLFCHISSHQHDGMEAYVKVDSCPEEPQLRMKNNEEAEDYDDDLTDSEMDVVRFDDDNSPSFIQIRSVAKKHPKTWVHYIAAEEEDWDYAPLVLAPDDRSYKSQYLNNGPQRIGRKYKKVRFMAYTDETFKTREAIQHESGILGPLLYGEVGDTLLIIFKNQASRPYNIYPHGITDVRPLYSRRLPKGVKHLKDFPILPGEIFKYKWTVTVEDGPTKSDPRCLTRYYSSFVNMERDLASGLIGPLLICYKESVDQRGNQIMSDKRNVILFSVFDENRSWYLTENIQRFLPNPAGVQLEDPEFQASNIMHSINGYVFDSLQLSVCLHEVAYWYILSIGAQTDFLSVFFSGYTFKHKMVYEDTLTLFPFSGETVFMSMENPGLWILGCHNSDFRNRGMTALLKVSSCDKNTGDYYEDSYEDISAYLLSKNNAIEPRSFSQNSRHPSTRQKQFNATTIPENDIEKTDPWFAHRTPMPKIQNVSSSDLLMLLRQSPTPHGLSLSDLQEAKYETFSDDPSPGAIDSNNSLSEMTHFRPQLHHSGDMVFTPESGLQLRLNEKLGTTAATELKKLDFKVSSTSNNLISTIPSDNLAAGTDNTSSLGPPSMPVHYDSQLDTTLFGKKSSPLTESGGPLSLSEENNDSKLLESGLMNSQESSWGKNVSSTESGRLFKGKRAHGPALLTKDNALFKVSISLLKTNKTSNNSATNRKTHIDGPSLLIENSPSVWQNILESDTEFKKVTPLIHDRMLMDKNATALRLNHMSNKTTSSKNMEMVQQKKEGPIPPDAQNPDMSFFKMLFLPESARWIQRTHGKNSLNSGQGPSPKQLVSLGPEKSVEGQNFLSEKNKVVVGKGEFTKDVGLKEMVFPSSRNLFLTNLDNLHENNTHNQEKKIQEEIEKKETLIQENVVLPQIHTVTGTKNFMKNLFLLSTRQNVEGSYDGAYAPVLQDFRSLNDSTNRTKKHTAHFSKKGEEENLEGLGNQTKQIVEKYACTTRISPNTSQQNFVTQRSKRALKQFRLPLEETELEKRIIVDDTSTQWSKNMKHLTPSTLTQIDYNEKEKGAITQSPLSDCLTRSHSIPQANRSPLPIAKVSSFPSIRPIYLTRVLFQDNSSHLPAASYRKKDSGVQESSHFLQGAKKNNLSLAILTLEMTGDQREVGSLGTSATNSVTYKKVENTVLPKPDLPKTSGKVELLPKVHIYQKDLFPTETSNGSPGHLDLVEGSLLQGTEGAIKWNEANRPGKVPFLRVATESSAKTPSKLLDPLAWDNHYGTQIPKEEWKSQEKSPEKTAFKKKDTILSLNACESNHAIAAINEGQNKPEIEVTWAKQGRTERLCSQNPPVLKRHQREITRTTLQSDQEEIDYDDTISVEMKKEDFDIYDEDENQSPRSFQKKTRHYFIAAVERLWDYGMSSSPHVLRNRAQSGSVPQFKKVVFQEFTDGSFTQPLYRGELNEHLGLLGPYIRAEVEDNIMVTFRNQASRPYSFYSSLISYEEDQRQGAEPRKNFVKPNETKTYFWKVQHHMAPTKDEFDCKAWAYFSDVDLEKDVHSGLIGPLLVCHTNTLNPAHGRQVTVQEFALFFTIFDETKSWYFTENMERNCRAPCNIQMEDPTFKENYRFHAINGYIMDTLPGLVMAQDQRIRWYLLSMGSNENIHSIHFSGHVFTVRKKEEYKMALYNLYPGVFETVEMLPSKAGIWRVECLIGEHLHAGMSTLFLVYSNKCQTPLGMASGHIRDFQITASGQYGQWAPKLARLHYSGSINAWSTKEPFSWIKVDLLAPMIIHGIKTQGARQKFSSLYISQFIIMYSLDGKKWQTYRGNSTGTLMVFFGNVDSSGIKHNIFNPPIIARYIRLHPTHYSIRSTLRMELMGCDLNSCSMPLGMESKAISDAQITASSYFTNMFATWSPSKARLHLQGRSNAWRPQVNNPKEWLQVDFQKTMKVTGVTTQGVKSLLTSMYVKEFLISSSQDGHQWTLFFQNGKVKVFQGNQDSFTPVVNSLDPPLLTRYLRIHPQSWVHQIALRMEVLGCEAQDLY

Target: A3C1C2 subunit of factor VIII (human) (UniProt P00451)
Assay: fluorescence titration of acrylodan-labeled A1 with A3C1C2

## acrylodan-labeled A1 subunit from Ala108Ile factor VIII (from UniProt P00451 20-391)
  binding: binds

## acrylodan-labeled A1 subunit from WT factor VIII (from UniProt P00451 20-391)
  binding: binds
